The text below walks through data of patent publication US10709687B2, “FLT3 receptor inhibitor at low dosage for the treatment of neuropathic pain” (INSTITUT NATIONAL DE LA SANTE ET DE LA RECHERCHE MEDICALE …, priority 2016, dated 2020).

The experiment deals with nerve injury-induced mechanical pain hypersensitivity. Briefly: Spinal Nerve Ligation (SNL) model, paw pressure test. The format is in vivo, rat. The settings on record: Method 1; no experimental details given. An excerpt:
The chronic Spinal Nerve Ligation model, which involves a tight ligation of the L5 and/or L6 spinal nerves with silk thread as previously described in Kim and Chung (Pain, 1992, 50: 355-363 is a model on rat, illustrated in Example 3 herein after, well known to the person skilled in the art.
Adult Sprague Dawley rats (300-340 gr) (Janvier LABS, Le Genest Saint-Isle, France) were used according to the guidelines of the International Association for the Study of Pain. Rats were housed in cages with a 12/12 hr light/dark cycle and fed food and water ad libitum. Behavioral responsiveness of the rats was tested following ten days of habituation to the testing environment and the observer. Left side L5 spinal nerve was injured as described by Kim and Chung (1992) Pain 50, 355-363. Anesthesia was induced and maintained with isoflurane. A midline incision was made at the L3-S2 level and the dorsal vertebral column from L4 to S2 was exposed. […] After surgery, the posture of the sham-operated and SNL rats was closely monitored before they were used in different experiments.
Mechanical hyperalgesia was measured as the threshold to a noxious mechanical stimulus. Nociceptive thresholds (NT) were determined in handled rats by a modification of the Randall-Selitto method (Kayser et al., Brain Res 1990; 508:329-332). […] A 600-g cut-off value was determined to prevent tissue damage. […]

For `CO[C@@H]1[C@H](N(C)C(=O)c2ccccc2)C[C@H]2O[C@]1(C)n1c3ccccc3c3c4c(c5c6ccccc6n2c5c31)C(=O)NC4` [Midostaurin], the “maximal inhibition on the SNL model in rat (dose)” value is listed as 4 mg/kg.
